Reference: PubChem BioAssay AID504804 (Drosophila RNAi Screening Center, 2011)
Aim: 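Fly genes whose loss lessens doxorubicin-driven cell death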 (primary screen). Cells: Drosophila Kc cells. Knock-down reagent: long dsRNA against Drosophila genes, 0.5 µg dsRNA per well. Time to read-out: 96 h (48 h knock-down, then 48 h drug). Conditions: doxorubicin 5 µg/ml for 48 h, added 48 h after dsRNA. Measurement: 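Viability measured as cellular ATP by luminescence after 48 h knock-down then 48 h doxorubicin at 5 µg/ml; unnormalised plate counts for each replicate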. Direction: raw ATP luminescence: higher = more viable cells, protection from doxorubicin. Hit rule: 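z-score of 2 or more over plate mean in both duplicates, retained only when retests and separate dsRNAs confirm the protection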.
The deposit covers about 19,000 reagents; below is a random part of those with a known target gene and a result. Of all reagents, 47 (0.25%) were called active. 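Signals are raw, not normalised; exact z-scores behind calls not deposited; actives needed confirmation, so some wells reaching 2 SD are inactive.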 Entries without a mark were called inactive. A plus sign joins genes that one reagent is predicted to hit.

gene knocked down	DRSC id	SD above plate mean	raw ATP luminescence, replicate 1	raw ATP luminescence, replicate 2
bab1 (bric a brac 1)	DRSC08379		40163	36890
vg (vestigial)	DRSC07715	2 to 3 SD above plate mean	2.20e5	2.15e5
CLS (Cardiolipin synthase)	DRSC15642		57200	66810
CG9406	DRSC04552		30833	33907
CG5071	DRSC15710		64330	60240
JhI-26 (Juvenile hormone-inducible protein 26)	DRSC06851		64447	61467
mRpL40 (mitochondrial ribosomal protein L40)	DRSC15749		55297	50763
mRpS10 (mitochondrial ribosomal protein S10)	DRSC15557		72890	65870
TkR86C (Tachykinin-like receptor at 86C)	DRSC16880		68133	53880
CG31122	DRSC14787		49747	37530
CG31122	DRSC16286		48880	71690
CG18545	DRSC15343		57453	57127
ND-13B (NADH dehydrogenase (ubiquinone) 13 kDa B subunit)	DRSC10643		78490	68783
lov (jim lovell)	DRSC04279		36163	49650
lov (jim lovell)	DRSC04665		47650	54050
retn (retained)	DRSC04679		46827	53923
CG34281	DRSC14807		1.06e5	83120
CG8209	DRSC10970		75087	82730
neur (neuralized)	DRSC17013	at least 2 SD above plate mean (active)	88603	46077
Z600	DRSC11317		52667	29287
CG14036	DRSC02361		26047	31420
Glg1 (Golgi complex-localized glycoprotein 1)	DRSC11815		30197	24077
Glg1 (Golgi complex-localized glycoprotein 1)	DRSC11816		60173	63100
Glg1 (Golgi complex-localized glycoprotein 1)	DRSC11817		64800	54543
CG7133	DRSC11798		25857	25180
CG42613	DRSC13332		83496	1.31e5
CG42613	DRSC14769		34260	37360
CG42613	DRSC15802		47120	79833
eIF3f1 (eukaryotic translation initiation factor 3 subunit f1)	DRSC12328		64263	61220
Spn77Ba (Serpin 77Ba)	DRSC10693		34797	33067
Sp1	DRSC17622		2.09e5	1.53e5
Sp1	DRSC18717		3.19e5	2.79e5
Adgf-A (Adenosine deaminase-related growth factor A)	DRSC10566		38163	28357
IFT57 (Intraflagellar transport 57)	DRSC00720		25600	28430
thoc7	DRSC08512		43293	55737
Jra (Jun-related antigen)	DRSC07447	at least 3 SD above plate mean (active)	1.17e5	1.00e5
CG15580	DRSC12266		71053	81247
ebi	DRSC00816		1.26e5	77590
CG4793	DRSC01966		70293	75883
alt (aluminum tubes)	DRSC15315		39787	52980
CG32985	DRSC02634		41720	78880
Past1 (Putative Achaete Scute Target 1)	DRSC16784		47073	52737
CG8043	DRSC16368		54847	59423
Ktch (Ketchup)	DRSC15094		64700	53140
CG7131	DRSC16203		80837	64727
CG31633	DRSC02275		27400	24863
CG32695	DRSC17975		3.93e5	3.51e5
CG33773	DRSC14032		2.25e5	2.37e5
noc (no ocelli)	DRSC03580		1.18e5	70737
CG34354	DRSC13863		2.50e5	2.47e5
CG34354	DRSC14515		18860	16070
CG34354	DRSC14558		11960	11010
CG34354	DRSC15645		73740	47450
CG6184	DRSC15986		37750	66800
CG9294	DRSC04537		72573	71353
Sply (Sphingosine-1-phosphate lyase)	DRSC07299		2.26e5	2.61e5
Xbp1 (X box binding protein-1)	DRSC04553		2.06e5	2.23e5
Ccdc39 (Coiled-coil domain containing protein 39)	DRSC12286		68847	57227
CG7945 + yellow-k	DRSC10851		37933	37587
CG13544	DRSC04186		48600	53563
Nxt1 (NTF2-related export protein 1)	DRSC04630		47983	45033
SK (small conductance calcium-activated potassium channel)	DRSC17387		2.36e5	2.13e5
SK (small conductance calcium-activated potassium channel)	DRSC17751		35690	44120
SK (small conductance calcium-activated potassium channel)	DRSC17887		34150	34510
SK (small conductance calcium-activated potassium channel)	DRSC17888		36380	44190
Nepl6 (Neprilysin-like 6)	DRSC03242		1.59e5	1.98e5
Son (Son RNA binding protein)	DRSC16400		66087	62780
CG6356	DRSC16026		61200	68050
Usp2 (Ubiquitin specific protease 2)	DRSC20590		2.18e5	2.05e5
Usp2 (Ubiquitin specific protease 2)	DRSC20633		2.75e5	2.92e5
Pif1 (Pif1 DNA helicase)	DRSC00582		1.12e5	61970
CG3163	DRSC04341		58093	49277
fd3F + CG42499 (retired record)	DRSC18160		34410	46820
fd3F + CG42499 (retired record)	DRSC18161		42790	38800
wupA (wings up A)	DRSC20385		3.43e5	3.50e5
Nurf-38 (Nucleosome remodeling factor - 38kD)	DRSC04629		49917	43297
CG15233	DRSC04967		60030	56753
Tbcc (Tubulin-binding cofactor C)	DRSC00223		3.05e5	2.70e5
Alp4 (Alkaline phosphatase 4)	DRSC14116		52260	41280
jp (junctophilin)	DRSC02213		78003	67937
jp (junctophilin)	DRSC02744		20873	52837
Rh7 (Rhodopsin 7)	DRSC10529		32513	44617
Delta	DRSC16648		57330	65360
cola + swif	DRSC06826		64147	71643
CG34205	DRSC04149		79173	68153
CG5321	DRSC19940		4.12e5	3.47e5
Obp99c (Odorant-binding protein 99c)	DRSC16262		59580	58820
CG7213	DRSC10787		62680	78353
mTerf5 (mitochondrial transcription termination factor 5)	DRSC16209		43807	39187
Stt3B	DRSC16781		63120	95970
Prx3 (Peroxiredoxin 3)	DRSC15883		64357	57487
CG15653	DRSC04244		48810	41597
Fas3 (Fasciclin 3)	DRSC01638		1.81e5	1.35e5
Fas3 (Fasciclin 3)	DRSC03326		64700	71523
PolA2 (DNA polymerase alpha subunit 2)	DRSC16641		59200	59360
Vav (Vav guanine nucleotide exchange factor)	DRSC20384		3.34e5	3.23e5
mus302 (mutagen-sensitive 302)	DRSC09905		33813	32330
Nubp1 (NUBP iron-sulfur cluster assembly factor 1)	DRSC02639		87273	66900
smid (smallminded)	DRSC11398		93317	95973
dbo (diablo)	DRSC11339		66003	53010
CR31822 (pseudo)	DRSC01510		2.99e5	2.38e5
naz (nazgul)	DRSC14790		71670	74580
naz (nazgul)	DRSC16199		67250	71750
CG34161	DRSC01132		2.84e5	3.11e5
CNBP (CCHC-type zinc finger nucleic acid binding protein)	DRSC04116		42717	48607
CNBP (CCHC-type zinc finger nucleic acid binding protein)	DRSC04419		70743	69513
CG5776	DRSC02891		1.11e5	94100

Not a retest: an excerpt of the list.
gene knocked down	DRSC id	SD above plate mean	raw ATP luminescence, replicate 1	raw ATP luminescence, replicate 2
bab1 (bric a brac 1)	DRSC08379		40163	36890
vg (vestigial)	DRSC07715	2 to 3 SD above plate mean	2.20e5	2.15e5
CLS (Cardiolipin synthase)	DRSC15642		57200	66810
CG9406	DRSC04552		30833	33907
CG5071	DRSC15710		64330	60240
JhI-26 (Juvenile hormone-inducible protein 26)	DRSC06851		64447	61467
mRpL40 (mitochondrial ribosomal protein L40)	DRSC15749		55297	50763
mRpS10 (mitochondrial ribosomal protein S10)	DRSC15557		72890	65870
TkR86C (Tachykinin-like receptor at 86C)	DRSC16880		68133	53880
